Source: article PMC3043000
Results are given in words; binding and its absence hold for the method and conditions named. For some assays here: Binding seen in cells or lysates may run through a third protein. Some results given as binding are weak or reduced against the parent protein; the word gives no strength.

By UniProt entry, the sequences of proteins in these tests, tags left out.
UniProt Q9WTL8: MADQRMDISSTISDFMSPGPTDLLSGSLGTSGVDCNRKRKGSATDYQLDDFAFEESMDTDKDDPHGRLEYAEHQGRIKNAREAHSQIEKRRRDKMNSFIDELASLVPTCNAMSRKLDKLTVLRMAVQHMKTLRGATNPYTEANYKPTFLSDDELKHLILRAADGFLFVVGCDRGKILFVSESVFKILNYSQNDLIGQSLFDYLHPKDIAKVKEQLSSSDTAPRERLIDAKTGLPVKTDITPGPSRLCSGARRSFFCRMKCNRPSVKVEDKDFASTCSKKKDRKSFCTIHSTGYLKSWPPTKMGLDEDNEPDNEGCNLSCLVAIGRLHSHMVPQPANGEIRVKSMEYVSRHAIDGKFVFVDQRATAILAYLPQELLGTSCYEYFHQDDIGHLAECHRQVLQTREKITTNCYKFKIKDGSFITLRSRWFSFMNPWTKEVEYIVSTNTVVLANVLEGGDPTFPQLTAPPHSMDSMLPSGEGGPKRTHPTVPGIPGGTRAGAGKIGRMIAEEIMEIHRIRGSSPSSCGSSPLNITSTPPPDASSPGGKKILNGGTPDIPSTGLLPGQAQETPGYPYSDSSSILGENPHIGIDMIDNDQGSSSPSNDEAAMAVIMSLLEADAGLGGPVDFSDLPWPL

Tests used:
[1] = target: T1, CLOCK (mouse (endogenous in liver)) (UniProt O08785); test: native gel or EMSA; supershift EMSA: mouse liver nuclear extract (ZT2) with radiolabelled E1-E2 oligonucleotide probes; anti-BMAL1 or anti-CLOCK antibody added before the probe
T1 sequence: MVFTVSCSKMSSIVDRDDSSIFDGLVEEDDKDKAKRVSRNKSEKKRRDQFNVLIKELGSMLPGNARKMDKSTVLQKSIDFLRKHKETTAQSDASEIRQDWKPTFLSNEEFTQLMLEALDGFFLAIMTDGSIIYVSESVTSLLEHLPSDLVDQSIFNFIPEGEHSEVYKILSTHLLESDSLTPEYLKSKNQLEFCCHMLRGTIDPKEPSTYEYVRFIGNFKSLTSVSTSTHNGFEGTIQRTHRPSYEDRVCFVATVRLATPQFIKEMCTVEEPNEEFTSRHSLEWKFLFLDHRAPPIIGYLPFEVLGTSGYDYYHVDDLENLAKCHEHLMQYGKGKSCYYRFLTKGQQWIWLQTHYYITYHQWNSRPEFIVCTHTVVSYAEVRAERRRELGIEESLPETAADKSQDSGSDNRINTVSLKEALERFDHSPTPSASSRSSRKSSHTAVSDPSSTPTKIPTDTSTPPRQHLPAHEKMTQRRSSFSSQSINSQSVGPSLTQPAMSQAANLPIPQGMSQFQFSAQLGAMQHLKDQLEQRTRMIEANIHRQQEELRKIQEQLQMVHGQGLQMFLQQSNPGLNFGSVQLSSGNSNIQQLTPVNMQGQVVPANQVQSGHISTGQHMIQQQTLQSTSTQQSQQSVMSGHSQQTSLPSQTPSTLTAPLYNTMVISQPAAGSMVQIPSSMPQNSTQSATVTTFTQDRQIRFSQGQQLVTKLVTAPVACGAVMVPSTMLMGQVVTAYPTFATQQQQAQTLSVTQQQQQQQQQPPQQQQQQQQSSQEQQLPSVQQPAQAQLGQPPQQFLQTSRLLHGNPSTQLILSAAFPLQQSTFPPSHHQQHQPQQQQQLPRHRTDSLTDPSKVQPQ

[2] = target: T1, CLOCK (mouse (endogenous in liver)); test: cross-linking + native gel or EMSA; two-dimensional EMSA: ZT2 liver nuclear extract with sp7 probe made with azido-dUTP, protein-DNA cross-linking, first dimension 4% acrylamide EMSA gel, second dimension resolves the DNA-bound proteins by mass

## BMAL1 (from UniProt Q9WTL8 1-632)
[1]
  binding: binds
[2]
  binding: binds
